The source of these data is US20250129166A1.

Chains of the proteins cited; added tags and fusions are not shown. Lines headed by an entry give the natural chain unless they say otherwise; changes in a name come on top.
UniProt Q9H7M9: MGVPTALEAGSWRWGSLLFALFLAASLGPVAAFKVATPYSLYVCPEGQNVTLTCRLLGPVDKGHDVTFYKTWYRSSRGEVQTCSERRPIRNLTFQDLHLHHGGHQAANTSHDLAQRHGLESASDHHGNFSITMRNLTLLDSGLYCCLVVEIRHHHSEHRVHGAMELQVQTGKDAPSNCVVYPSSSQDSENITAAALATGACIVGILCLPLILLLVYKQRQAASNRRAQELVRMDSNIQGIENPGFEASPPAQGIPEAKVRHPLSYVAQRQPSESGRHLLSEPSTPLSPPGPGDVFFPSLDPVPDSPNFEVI

These are yes or no findings as the source states them, for the method shown. Some results given as binding are weak or reduced against the parent protein; the word gives no strength.

The target of experiment [1] is monovalent hVISTA-ECD (amino acids 32-193 of SEQ ID NO: 1 with a 7xHis tail) (human) (UniProt Q9H7M9). Description: SPR, mAb captured on Protein A, 100 nM hVISTA-ECD, 37 C, pH 7.4, 6.7 and 6.0, normalized sensorgrams. A general note: Surface plasmon resonance follows binding to a sensor surface in real time, without labels.
Experiment [2] shares this target. Description: SPR, mAb on Protein A, 100 nM hVISTA-ECD, 37C, pH 7.4, 6.7 and 6.0.

B1: VISTA.5 (mAb1) (antibody, V domains shown)
VH: AVQLQESGPGLVRPSQSLSLTCTVTDYSITSDYAWNWIRQFPGSKLEWLGFIGYSGNTNYNPSLESRISITRHTSKNQFFLHLNSMTTEDTATYYCARSLYGGSHWYFDVWGAGTTVTVSS
VL: DIVLTQSPASLAVSLGQRATISCRGSESVEYYGTILMQWYQQKPGQPPKLLIYGASNVESGVPARFSGSGSGTDFSLNIHPVEEDDIAMYFCQQSRKVPWTFGGGTKLEIK
Take B1: the binding entry in experiment [1] and in experiment [2] was “binds” each time.
